Source: publication PMC4198130

Tests used:
[1] = target: GST fusion of the SH3 domain of spectrin (Panomics) (human); assay: pull-down; GST fusions of SH3 or WW domains on glutathione sepharose beads, incubated with detergent-solubilized (2% TX-100) rat brain extract, RT 60 min; bound VGLUT1 by immunoblot, band intensity normalised to lysate; only the target purified
[2] = target: GST fusion of the SH3 domain of spectrin (Panomics) (human); assay: peptide or protein array; TranSignal SH3 and WW Domain Arrays (Panomics/Affymetrix): purified GST fusions of human SH3 or WW domains immobilised on a membrane, in duplicate at 100 ng; His-PP1 in solution, detected with anti-His antibody (methods: purified His-PP1; results and legend: bacterial extract with the tagged protein); both purified
[3] = target: GST fusion of the SH3 domain of endophilin (SH3 domain array) (human); assay: as above
[4] = target: GST fusion of an SH3 domain of intersectin (SH3 domain array) (human); assay: as above

binding [1]: no binding
B1: VGLUT1 from rat brain extract (protein, UniProt Q62634 1-560)
chain: MEFRQEEFRKLAGRALGRLHRLLEKRQEGAETLELSADGRPVTTHTRDPPVVDCTCFGLPRRYIIAIMSGLGFCISFGIRCNLGVAIVSMVNNSTTHRGGHVVVQKAQFNWDPETVGLIHGSFFWGYIVTQIPGGFICQKFAANRVFGFAIVATSTLNMLIPSAARVHYGCVIFVRILQGLVEGVTYPACHGIWSKWAPPLERSRLATTAFCGSYAGAVVAMPLAGVLVQYSGWSSVFYVYGSFGIFWYLFWLLVSYESPALHPSISEEERKYIEDAIGESAKLMNPVTKFNTPWRRFFTSMPVYAIIVANFCRSWTFYLLLISQPAYFEEVFGFEISKVGLVSALPHLVMTIIVPIGGQIADFLRSRHIMSTTNVRKLMNCGGFGMEATLLLVVGYSHSKGVAISFLVLAVGFSGFAISGFNVNHLDIAPRYASILMGISNGVGTLSGMVCPIIVGAMTKHKTREEWQYVFLIASLVHYGGVIFYGVFASGEKQPWAEPEEMSEEKCGFVGHDQLAGSDESEMEDEVEPPGAPPAPPPSYGATHSTVQPPRPPPPVRDY

binding [2]: binds
binding [3]: binds
binding [4]: binds
Binder: HDQLAGSDESEMEDEVEPPGAPPAPPPSYGATHSTVQ (domain or fragment, UniProt Q62634 513-549) [His-tagged VGLUT1 C-terminal peptide (amino acids 513-549)]

These are yes or no findings as the source states them, for the method shown. For some of these results: A result given as binding can be weak or reduced; the word gives no strength. For some of these results: Where a sequence is shown, tags or fusion partners need not be part of it. For some of these results: In cells and extracts the contact can be indirect. Each block holds one binder with its values, some of them ahead of it.
